Article PMC9220252
Substitutions are numbered along the chain they refer to. No constants are given. Whether binding was seen depends on the method and setting. Binding seen in cells or lysates may run through a third protein. Some entries that bind do so weakly or less than the wild type. For part of these data: Tags and fused reporters may be left off the sequences shown.

Protein sequences, listed by entry. Tags and fused reporters are not part of them.
UniProt Q16665: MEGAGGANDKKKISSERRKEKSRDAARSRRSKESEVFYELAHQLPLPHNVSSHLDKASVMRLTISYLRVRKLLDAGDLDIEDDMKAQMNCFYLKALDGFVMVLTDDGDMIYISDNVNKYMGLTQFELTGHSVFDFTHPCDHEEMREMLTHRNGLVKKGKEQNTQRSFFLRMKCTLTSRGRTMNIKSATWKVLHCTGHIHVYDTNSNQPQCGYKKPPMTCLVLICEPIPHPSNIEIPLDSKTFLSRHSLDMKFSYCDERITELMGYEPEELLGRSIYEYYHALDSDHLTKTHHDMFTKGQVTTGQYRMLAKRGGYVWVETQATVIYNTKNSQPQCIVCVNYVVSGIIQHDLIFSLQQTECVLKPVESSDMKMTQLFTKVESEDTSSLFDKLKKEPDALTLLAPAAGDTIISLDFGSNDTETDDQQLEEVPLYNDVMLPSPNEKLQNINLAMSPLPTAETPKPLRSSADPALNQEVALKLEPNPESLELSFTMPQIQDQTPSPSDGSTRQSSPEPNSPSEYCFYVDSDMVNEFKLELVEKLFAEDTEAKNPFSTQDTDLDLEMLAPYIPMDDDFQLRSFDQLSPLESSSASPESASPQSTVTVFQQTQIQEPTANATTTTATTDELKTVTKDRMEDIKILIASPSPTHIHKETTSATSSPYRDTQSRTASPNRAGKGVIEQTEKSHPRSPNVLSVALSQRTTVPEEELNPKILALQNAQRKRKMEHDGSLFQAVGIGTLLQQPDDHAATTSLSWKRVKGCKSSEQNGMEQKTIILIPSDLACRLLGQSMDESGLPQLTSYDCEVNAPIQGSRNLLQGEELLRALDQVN
UniProt Q09472: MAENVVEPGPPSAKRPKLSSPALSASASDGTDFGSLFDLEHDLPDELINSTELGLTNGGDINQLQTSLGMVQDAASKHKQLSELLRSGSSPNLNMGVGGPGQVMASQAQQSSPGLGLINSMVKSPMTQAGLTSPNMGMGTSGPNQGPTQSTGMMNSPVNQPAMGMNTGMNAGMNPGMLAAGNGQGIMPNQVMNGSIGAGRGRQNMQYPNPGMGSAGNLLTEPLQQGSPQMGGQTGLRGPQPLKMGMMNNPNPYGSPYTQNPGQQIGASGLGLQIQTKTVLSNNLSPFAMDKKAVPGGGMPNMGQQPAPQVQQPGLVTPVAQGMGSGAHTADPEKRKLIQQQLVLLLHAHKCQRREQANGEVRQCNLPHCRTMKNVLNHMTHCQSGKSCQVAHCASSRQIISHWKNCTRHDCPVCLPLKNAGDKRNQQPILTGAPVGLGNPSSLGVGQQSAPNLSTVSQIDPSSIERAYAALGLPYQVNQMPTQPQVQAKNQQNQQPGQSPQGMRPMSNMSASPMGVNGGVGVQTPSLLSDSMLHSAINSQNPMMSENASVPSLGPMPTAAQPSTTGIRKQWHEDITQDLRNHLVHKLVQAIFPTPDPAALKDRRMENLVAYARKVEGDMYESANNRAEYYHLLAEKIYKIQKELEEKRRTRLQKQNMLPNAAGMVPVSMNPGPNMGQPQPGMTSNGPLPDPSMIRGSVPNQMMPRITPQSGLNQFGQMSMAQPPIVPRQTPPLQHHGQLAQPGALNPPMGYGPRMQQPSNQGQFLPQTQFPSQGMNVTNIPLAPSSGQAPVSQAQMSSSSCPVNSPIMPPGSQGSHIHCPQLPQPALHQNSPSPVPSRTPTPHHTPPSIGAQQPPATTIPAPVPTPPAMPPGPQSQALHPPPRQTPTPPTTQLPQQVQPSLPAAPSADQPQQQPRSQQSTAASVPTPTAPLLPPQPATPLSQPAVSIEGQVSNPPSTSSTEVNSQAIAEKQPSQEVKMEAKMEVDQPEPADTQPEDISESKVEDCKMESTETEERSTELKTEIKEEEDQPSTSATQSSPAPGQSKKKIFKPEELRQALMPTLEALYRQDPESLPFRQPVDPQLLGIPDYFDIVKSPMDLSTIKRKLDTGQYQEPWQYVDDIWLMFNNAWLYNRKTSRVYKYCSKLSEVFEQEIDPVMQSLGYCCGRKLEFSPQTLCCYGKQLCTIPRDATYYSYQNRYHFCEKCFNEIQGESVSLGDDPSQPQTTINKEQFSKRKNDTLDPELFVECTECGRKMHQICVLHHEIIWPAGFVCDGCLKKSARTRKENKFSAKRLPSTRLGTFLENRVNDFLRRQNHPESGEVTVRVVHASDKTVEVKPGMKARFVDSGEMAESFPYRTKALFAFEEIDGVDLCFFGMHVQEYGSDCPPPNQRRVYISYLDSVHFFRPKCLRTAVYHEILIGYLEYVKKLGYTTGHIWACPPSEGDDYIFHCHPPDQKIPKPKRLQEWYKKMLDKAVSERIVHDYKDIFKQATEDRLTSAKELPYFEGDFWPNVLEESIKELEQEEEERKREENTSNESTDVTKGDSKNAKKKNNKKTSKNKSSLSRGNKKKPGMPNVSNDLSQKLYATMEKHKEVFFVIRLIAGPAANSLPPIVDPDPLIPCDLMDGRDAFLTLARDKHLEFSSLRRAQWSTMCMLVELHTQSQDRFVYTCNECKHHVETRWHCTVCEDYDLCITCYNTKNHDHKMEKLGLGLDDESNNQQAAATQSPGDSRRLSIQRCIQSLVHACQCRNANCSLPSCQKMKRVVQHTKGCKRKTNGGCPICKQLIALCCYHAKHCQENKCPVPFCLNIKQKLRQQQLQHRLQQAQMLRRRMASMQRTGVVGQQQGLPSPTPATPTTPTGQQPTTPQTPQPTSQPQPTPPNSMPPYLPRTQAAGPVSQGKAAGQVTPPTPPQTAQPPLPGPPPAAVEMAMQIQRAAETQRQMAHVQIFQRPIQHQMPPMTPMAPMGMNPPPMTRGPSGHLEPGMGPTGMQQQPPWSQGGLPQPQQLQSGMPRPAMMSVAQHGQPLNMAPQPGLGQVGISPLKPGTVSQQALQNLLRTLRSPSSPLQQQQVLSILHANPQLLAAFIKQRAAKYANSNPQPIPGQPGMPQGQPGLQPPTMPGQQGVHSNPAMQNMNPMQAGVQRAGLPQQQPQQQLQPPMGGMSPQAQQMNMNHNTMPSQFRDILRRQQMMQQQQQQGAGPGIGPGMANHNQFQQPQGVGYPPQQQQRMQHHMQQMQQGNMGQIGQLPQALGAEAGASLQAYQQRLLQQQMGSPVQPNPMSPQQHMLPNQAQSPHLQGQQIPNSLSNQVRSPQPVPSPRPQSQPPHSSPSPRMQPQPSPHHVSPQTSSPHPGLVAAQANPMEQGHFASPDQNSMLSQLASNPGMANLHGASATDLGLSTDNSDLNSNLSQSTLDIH
UniProt P14618: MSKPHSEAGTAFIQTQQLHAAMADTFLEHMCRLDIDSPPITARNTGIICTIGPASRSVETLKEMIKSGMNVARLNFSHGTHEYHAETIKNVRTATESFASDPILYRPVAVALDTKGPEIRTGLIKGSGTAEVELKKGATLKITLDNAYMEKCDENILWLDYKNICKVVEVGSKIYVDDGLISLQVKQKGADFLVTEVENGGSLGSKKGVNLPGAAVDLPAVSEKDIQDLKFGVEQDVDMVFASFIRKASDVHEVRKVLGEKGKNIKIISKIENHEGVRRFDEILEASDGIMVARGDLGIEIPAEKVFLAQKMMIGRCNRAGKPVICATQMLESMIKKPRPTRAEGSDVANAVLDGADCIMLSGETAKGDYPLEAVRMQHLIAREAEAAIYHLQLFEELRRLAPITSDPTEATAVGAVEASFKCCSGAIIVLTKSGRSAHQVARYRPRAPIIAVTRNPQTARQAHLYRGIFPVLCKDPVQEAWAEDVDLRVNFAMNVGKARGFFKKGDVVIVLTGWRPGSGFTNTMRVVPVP
UniProt P53396: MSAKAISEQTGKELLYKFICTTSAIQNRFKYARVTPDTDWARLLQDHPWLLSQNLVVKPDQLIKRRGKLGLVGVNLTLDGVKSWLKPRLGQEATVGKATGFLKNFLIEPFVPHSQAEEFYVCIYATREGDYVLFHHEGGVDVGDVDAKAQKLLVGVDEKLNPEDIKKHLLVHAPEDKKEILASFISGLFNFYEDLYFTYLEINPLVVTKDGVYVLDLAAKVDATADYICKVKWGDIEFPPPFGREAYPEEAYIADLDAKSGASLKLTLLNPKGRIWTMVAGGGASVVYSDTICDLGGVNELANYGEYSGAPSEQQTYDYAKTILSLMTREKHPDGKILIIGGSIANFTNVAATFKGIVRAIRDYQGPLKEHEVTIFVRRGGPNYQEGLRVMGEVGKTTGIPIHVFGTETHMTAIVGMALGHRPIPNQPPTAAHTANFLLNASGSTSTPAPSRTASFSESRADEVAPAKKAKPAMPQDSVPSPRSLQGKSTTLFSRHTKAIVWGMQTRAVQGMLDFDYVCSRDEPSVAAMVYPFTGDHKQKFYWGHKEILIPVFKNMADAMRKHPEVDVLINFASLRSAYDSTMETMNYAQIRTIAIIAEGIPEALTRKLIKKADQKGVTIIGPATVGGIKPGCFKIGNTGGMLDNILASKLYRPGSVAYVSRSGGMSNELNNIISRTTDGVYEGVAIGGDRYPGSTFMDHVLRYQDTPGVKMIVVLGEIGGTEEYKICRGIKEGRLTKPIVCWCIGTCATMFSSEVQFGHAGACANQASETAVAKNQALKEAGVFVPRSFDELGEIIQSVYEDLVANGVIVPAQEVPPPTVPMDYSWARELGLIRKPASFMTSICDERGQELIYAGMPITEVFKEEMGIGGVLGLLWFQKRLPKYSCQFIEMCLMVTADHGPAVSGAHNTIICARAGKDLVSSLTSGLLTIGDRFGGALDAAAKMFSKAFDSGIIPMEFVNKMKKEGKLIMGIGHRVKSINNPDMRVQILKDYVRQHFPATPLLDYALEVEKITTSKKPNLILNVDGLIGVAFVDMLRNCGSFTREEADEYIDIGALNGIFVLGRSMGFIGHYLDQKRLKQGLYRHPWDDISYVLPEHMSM

Legend:
GST-PDHA1 S293D [1] = target: T1, GST-PDHA1 S293D (UniProt P08559); assay: condition: only lysates of control HepG2 cells not stimulated with insulin; pull-down; purified recombinant GST-PDHA1 beads incubated with lysates of control HepG2 cells (no insulin); bound PKM2 by immunoblotting; only the target purified
T1 sequence: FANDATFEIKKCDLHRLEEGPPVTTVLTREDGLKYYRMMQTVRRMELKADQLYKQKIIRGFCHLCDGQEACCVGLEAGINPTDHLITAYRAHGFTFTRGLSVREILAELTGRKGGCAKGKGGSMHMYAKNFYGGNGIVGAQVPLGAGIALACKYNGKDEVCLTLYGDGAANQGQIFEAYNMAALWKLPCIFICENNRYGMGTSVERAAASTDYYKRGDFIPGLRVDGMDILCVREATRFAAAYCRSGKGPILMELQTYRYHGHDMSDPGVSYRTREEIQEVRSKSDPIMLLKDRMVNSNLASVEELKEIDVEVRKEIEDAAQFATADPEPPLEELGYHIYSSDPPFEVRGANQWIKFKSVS

[2] = target: HIF-1α, HepG2 cells (human (endogenous in HepG2)) (UniProt Q16665); assay: co-IP; endogenous proteins immunoprecipitated with specific antibody and protein A/G beads from lysates of HepG2 cells stimulated with insulin (100 nM); SDS-PAGE and Western blotting
[3] = target: p300 histone acetyltransferase (HAT), HepG2 cells (human (endogenous in HepG2)) (UniProt Q09472); assay: as above
GST-PDHA1 S293D [4] = target: T1, GST-PDHA1 S293D; assay: pull-down; purified recombinant GST-PDHA1 beads incubated with lysates of HepG2 cells treated with insulin 100 nM for 48 h; bound PKM2 by immunoblotting; only the target purified
[5] = target: T2, p-Ser293 PDHA1 (p-PDHA1), HepG2 cells (human (endogenous in HepG2)) (UniProt P08559); assay: co-IP; endogenous proteins immunoprecipitated with specific antibody and protein A/G beads from lysates of HepG2 cells stimulated with insulin (100 nM); SDS-PAGE and Western blotting
T2 sequence (chain, phosphoserine at Ser293): T1 sequence with D264S

| binding (GST-PDHA1 S293D [1]) | binding [2] | binding [3] | binding (GST-PDHA1 S293D [4]) | binding [5] | Substance |
| --- | --- | --- | --- | --- | --- |
| no binding | binds | binds | binds | – | Pyruvate kinase M2 (PKM2), HepG2 cells (from UniProt P14618 1-531) |
| – | – | – | – | binds | ATP citrate lyase (ACL), HepG2 cells (from UniProt P53396 1-1101) |
| – | – | – | – | binds | p300 histone acetyltransferase (HAT), HepG2 cells (from UniProt Q09472 1-2414) |
